PubChem BioAssay AID504764 – Drosophila RNAi Screening Center, 2011

Test: 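Genome-wide screen for regulators of Notch-driven gene expression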 (primary screen)
Cells: Drosophila Kc167 cells
Knock-down reagent: long dsRNA against Drosophila genes
Time to read-out: about 5 days (4 days dsRNA, then 24 h after transfection)
Conditions: transfection of constitutively active membrane-tethered Notch lacking the extracellular domain, read 24 h later
Measurement: 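Light from a Notch-responsive E(spl)m3 luciferase reporter under active Notch, with control-promoter and no-Notch reporter wells to normalise; raw counts from paired wells a and b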
Scale: induced reporter light, run 1, well a and induced reporter light, run 1, well b: higher = more light from the Notch target reporter with active Notch; control promoter light, run 1, well a and control promoter light, run 1, well b: higher = more light from the viral control promoter (cell number, transfection, viability); uninduced reporter light, run 1, well a: higher = more light from the Notch target reporter without active Notch
Rule for the call: 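Hit if the duplicate-averaged log2 ratio of induced to control-promoter light gives a plate-wise z beyond ±2, or induced to uninduced beyond ±1.8; weak-control or discordant-duplicate wells dropped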
Meaning of the calls: active = modifier hit (raised or lowered Notch signal); inactive = not a hit
In all, the deposit lists about 22,000 reagents; this is an unselected part of those that have a named target and a result. In the full data, 403 (1.9%) are marked active. 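Unnormalised raw counts per well; ratio z-scores behind the hit calls and whether each hit raises or lowers signal are not deposited.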 The record does not give: the amount of reagent.

Gene | amplicon | induced reporter light, run 1, well a | induced reporter light, run 1, well b | control promoter light, run 1, well a | control promoter light, run 1, well b | uninduced reporter light, run 1, well a | outcome
CG17380 | DRSC15230 | 1.28e5 | 1.50e5 | 1.44e5 | 1.56e5 | 11900 | inactive
lqf | DRSC11363 | 1.24e5 | 1.14e5 | 66535 | 35170 | 11830 | inactive
CG13471 | DRSC10015 | 1.81e5 | 1.58e5 | 2.48e5 | 2.40e5 | 9765 | inactive
CG12861 | DRSC06201 | 91170 | 95615 | 94925 | 91625 | 8560 | inactive
CG9928 | DRSC03274 | 1.24e5 | 1.59e5 | 1.25e5 | 1.35e5 | 11445 | inactive
Ccp84Ab | DRSC12587 | 1.13e5 | 1.17e5 | 75765 | 64490 | 7542 | inactive
CG13318 | DRSC14581 | 61180 | 64735 | 69360 | 53980 | 4190 | inactive
dmGlut | DRSC02835 | 2.01e5 | 1.72e5 | 1.29e5 | 1.35e5 | 15035 | inactive
Obp56h | DRSC06433 | 27390 | 26275 | 41360 | 33840 | 4342 | inactive
fred | DRSC00349 | 2.15e5 | 1.72e5 | 2.06e5 | 1.99e5 | 13880 | inactive
fred | DRSC00599 | 1.61e5 | 1.41e5 | 2.10e5 | 1.94e5 | 10155 | inactive
fred | DRSC00601 | 1.40e5 | 1.25e5 | 1.59e5 | 1.35e5 | 6365 | inactive
fred | DRSC00602 | 96465 | 79285 | 95620 | 74885 | 6760 | inactive
GAPcenA | DRSC10771 | 1.63e5 | 1.34e5 | 1.26e5 | 1.35e5 | 6400 | inactive
pn | DRSC18822 | 1.79e5 | 1.64e5 | 2.62e5 | 2.70e5 | 13820 | inactive
Hacd2 | DRSC03181 | 2.10e5 | 2.09e5 | 1.91e5 | 1.84e5 | 18460 | inactive
CG3288 | DRSC11745 | 1.21e5 | 99390 | 94755 | 1.04e5 | 7780 | inactive
Nplp4 | DRSC00391 | 1.47e5 | 1.07e5 | 1.09e5 | 92950 | 9638 | inactive
sca | DRSC07677 | 78550 | 76165 | 1.33e5 | 97530 | 8090 | inactive
Hgsnat | DRSC18405 | 2.89e5 | 2.45e5 | 4.37e5 | 3.86e5 | 15825 | inactive

Targets above whose target name begins with H or h:
Gene | amplicon | induced reporter light, run 1, well a | induced reporter light, run 1, well b | control promoter light, run 1, well a | control promoter light, run 1, well b | uninduced reporter light, run 1, well a | outcome
Hacd2 | DRSC03181 | 2.10e5 | 2.09e5 | 1.91e5 | 1.84e5 | 18460 | inactive
Hgsnat | DRSC18405 | 2.89e5 | 2.45e5 | 4.37e5 | 3.86e5 | 15825 | inactive
